The record followed here is PMC5458179, “Oxidative DNA double strand breaks and autophagy in the antitumor effect of sterically hindered platinum(II) complexes in NSCLCs” (Oncotarget, 2017).

In data set [1] the test system is NCI-H1299 cells. Nature of the data set: Cellular platinum uptake (ICP). The class given is cell-based. The note with it: NCI-H1299, 10 μM.
The subject of data set [2] is A549 cells. Nature of the data set: Cellular platinum uptake (ICP). The format is cell-based. The following applies: A549, 10 μM.

For `CC(C)C[NH+]1[C@@H]2CCCC[C@H]2[NH+](CC(C)C)[Pt-2]12[O]C(=O)CC(=O)[O]2` (stereo partly shown) [Complex 3], the “Pt accumulation of complex 3 compared to complex 3a” value in data set [1] amounted to 2.0 times; in data set [2], 2.4 times. The results for the “Pt accumulation of complex 3 compared to oxaliplatin” value in data set [1] and in data set [2] were 1.9 times and 2.0 times, respectively.
